{"source": "patent US20100009949A1", "about": "“NOVEL METHOD” (BioXell S.p.A., priority 2001, published 2010)", "tested_on": "DU145 cells", "test": "Cell proliferation assay (cell counting), DU145", "format": "cell-based, human", "settings": "LY294002 10 nM, KGF 10 ng/ml, 48 h", "description": "Cell proliferation assay: All proliferation tests were performed after 24 h of cell starvation in phenol red- and serum-free medium containing 0.1% BSA. After starvation, cells were incubated in the same medium as before, with or without specific stimuli. Thereafter, cells were trypsinized, and each experimental point was derived from counting in the hemocytometer and then averaging at least six different fields for each well as previously reported (Crescioli et al. 2003). Experiments were performed seeding 4×10^4 cells onto 12-well plates in growth medium and incubated for 48 h with: 1) increasing concentrations of 1-alpha-fluoro-25-hydroxy-16,23E-diene-26,27-bishomo-20-epi-cholecalciferol (1×10^−12, 1×10^−11, 1×10^−10, 1×10^−9, 1×10^−8 M) with or without fixed concentration of KGF (10 ng/ml) or fixed concentration of bFGF (10 ng/ml); 2) fixed concentration of LY 294002 (10 nM) with or without KGF (10 ng/ml). In the same experiment each experimental point was repeated in triplicate and experiments were performed at least three times. Cell growth results are expressed as the percentage of growth compared with their relative controls.\nStatistical analysis: All the data are shown as mean±SEM of the indicated number of experiments. […] IC50 for dose response curves were calculated using the program ALLFIT.", "note": "At least one structure is not confirmed: it was looked up by name or label, or the drawing left a doubt.", "data": [{"smiles": "O=c1cc(N2CCOCC2)oc2c(-c3ccccc3)cccc12", "note": "[LY294002, reference compound]", "values": [{"measurement": "Effect on KGF-induced proliferation of DU145 cells", "value": "inhibitory effect"}]}]}
